In article PMC11385081:
No constants are given. Whether binding was seen depends on the method and setting. A result given as binding can be weak or reduced; the word gives no strength.

Sequences of proteins named here, by UniProt entry; tags and fusion partners are left off. A change or cut given only in a name is not applied to a line headed by its entry. Residues count along the entry.
UniProt Q4J6C6, residues 90-727: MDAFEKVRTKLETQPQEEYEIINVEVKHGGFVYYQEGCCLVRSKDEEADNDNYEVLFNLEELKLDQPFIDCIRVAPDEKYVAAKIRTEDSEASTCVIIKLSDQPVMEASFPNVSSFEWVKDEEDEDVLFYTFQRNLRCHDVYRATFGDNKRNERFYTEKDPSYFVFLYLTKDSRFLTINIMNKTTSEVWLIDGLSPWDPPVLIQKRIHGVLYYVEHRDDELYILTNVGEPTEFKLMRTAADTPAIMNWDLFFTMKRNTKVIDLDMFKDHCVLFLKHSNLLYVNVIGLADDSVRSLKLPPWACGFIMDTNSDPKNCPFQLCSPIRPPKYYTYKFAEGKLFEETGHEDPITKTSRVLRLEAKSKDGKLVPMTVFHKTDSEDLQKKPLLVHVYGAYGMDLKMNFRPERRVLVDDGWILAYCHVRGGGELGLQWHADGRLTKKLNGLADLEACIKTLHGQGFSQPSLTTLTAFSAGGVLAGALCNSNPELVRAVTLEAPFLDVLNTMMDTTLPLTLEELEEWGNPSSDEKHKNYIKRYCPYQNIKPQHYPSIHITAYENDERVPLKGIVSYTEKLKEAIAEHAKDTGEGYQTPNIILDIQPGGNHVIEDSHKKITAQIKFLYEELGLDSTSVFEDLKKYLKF
UniProt Q7Z4H4: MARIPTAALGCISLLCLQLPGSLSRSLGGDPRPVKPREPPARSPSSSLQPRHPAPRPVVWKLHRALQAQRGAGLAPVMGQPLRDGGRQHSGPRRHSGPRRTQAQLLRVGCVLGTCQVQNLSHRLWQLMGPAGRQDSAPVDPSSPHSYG
UniProt Q15118, residues 29-436: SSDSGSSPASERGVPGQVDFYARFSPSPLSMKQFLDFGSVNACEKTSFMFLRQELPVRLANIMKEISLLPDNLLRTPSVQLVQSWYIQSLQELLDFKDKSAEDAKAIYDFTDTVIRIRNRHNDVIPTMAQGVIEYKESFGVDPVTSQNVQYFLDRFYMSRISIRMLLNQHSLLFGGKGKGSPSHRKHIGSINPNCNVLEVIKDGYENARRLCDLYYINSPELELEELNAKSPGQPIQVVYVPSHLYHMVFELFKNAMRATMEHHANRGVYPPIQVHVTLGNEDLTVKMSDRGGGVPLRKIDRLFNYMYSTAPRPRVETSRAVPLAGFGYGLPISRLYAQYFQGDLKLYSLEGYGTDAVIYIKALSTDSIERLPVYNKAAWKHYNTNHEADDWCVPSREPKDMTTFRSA
UniProt Q9BTE1: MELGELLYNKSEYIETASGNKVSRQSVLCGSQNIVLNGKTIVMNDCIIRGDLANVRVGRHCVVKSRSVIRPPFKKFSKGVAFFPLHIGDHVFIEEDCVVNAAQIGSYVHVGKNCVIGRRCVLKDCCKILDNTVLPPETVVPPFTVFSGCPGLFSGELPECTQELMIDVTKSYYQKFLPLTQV
UniProt P19404, residues 33-249: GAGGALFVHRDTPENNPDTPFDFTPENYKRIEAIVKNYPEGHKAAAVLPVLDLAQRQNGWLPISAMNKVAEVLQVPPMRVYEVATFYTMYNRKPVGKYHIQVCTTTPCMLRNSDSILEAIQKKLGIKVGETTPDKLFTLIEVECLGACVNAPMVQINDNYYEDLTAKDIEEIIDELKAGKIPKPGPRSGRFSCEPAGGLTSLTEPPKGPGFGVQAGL

B1: UBL5 (protein, UniProt Q9BZL1 1-73)
chain: MIEVVCNDRLGKKVRVKCNTDDTIGDLKKLIAAQTGTRWNKIVLKKWYTIFKDHVSLGDYEIHDGMNLELYYQ
B2: DISC1 (protein, UniProt Q9NRI5 1-854)
chain: MPGGGPQGAPAAAGGGGVSHRAGSRDCLPPAACFRRRRLARRPGYMRSSTGPGIGFLSPAVGTLFRFPGGVSGEESHHSESRARQCGLDSRGLLVRSPVSKSAAAPTVTSVRGTSAHFGIQLRGGTRLPDRLSWPCGPGSAGWQQEFAAMDSSETLDASWEAACSDGARRVRAAGSLPSAELSSNSCSPGCGPEVPPTPPGSHSAFTSSFSFIRLSLGSAGERGEAEGCPPSREAESHCQSPQEMGAKAASLDGPHEDPRCLSRPFSLLATRVSADLAQAARNSSRPERDMHSLPDMDPGSSSSLDPSLAGCGGDGSSGSGDAHSWDTLLRKWEPVLRDCLLRNRRQMEVISLRLKLQKLQEDAVENDDYDKAETLQQRLEDLEQEKISLHFQLPSRQPALSSFLGHLAAQVQAALRRGATQQASGDDTHTPLRMEPRLLEPTAQDSLHVSITRRDWLLQEKQQLQKEIEALQARMFVLEAKDQQLRREIEEQEQQLQWQGCDLTPLVGQLSLGQLQEVSKALQDTLASAGQIPFHAEPPETIRSLQERIKSLNLSLKEITTKVCMSEKFCSTLRKKVNDIETQLPALLEAKMHAISGNHFWTAKDLTEEIRSLTSEREGLEGLLSKLLVLSSRNVKKLGSVKEDYNRLRREVEHQETAYETSVKENTMKYMETLKNKLCSCKCPLLGKVWEADLEACRLLIQSLQLQEARGSLSVEDERQMDDLEGAAPPIPPRLHSEDKRKTPLKVLEEWKTHLIPSLHCAGGEQKEESYILSAELGEKCEDIGKKLLYLEDQLHTAIHSHDEDLIQSLRRELQMVKETLQAMILQLQPAKEAGEREAAASCMTAGVHEAQA
B3: STX5 (protein, UniProt Q13190 1-355)
chain: MIPRKRYGSKNTDQGVYLGLSKTQVLSPATAGSSSSDIAPLPPPVTLVPPPPDTMSCRDRTQEFLSACKSLQTRQNGIQTNKPALRAVRQRSEFTLMAKRIGKDLSNTFAKLEKLTILAKRKSLFDDKAVEIEELTYIIKQDINSLNKQIAQLQDFVRAKGSQSGRHLQTHSNTIVVSLQSKLASMSNDFKSVLEVRTENLKQQRSRREQFSRAPVSALPLAPNHLGGGAVVLGAESHASKDVAIDMMDSRTSQQLQLIDEQDSYIQSRADTMQNIESTIVELGSIFQQLAHMVKEQEETIQRIDENVLGAQLDVEAAHSEILKYFQSVTSNRWLMVKIFLILIVFFIIFVVFLA
B4: MDM1 (protein, UniProt Q8TC05 1-714)
chain: MPVRFKGLSEYQRNFLWKKSYLSESCNSSVGRKYPWAGLRSDQLGITKEPSFISKRRVPYHDPQISKSLEWNGAISESNVVASPEPEAPETPKSQEAEQKDVTQERVHSLEASRVPKRTRSHSADSRAEGASDVENNEGVTNHTPVNENVELEHSTKVLSENVDNGLDRLLRKKAGLTVVPSYNALRNSEYQRQFVWKTSKETAPAFAANQVFHNKSQFVPPFKGNSVIHETEYKRNFKGLSPVKEPKLRNDLRENRNLETVSPERKSNKIDDRLKLEAEMELKDLHQPKRKLTPWKHQRLGKVNSEYRAKFLSPAQYLYKAGAWTHVKGNMPNQVKELREKAEFYRKRVQGTHFSRDHLNQILSDSNCCWDVSSTTSSEGTVSSNIRALDLAGDPTSHKTLQKCPSTEPEEKGNIVEEQPQKNTTEKLGVSAPTIPVRRRLAWDTENTSEDVQKQPGEKEEEDDNEEEGDRKTGKQAFMGEQEKLDVREKSKADKMKEGSDSSVSSEKGGRLPTPKLRELGGIQRTHHDLTTPAVGGAVLVSPSKMKPPAPEQRKRMTSQDCLETSKNDFTKKESRAVSLLTSPAAGIKTVDPLPLREDSEDNIHKFAEATLPVSKIPKYPTNPPGQLPSPPHVPSYWHPSRRIQGSLRDPEFQHNVGKARMNNLQLPQHEAFNDEDEDRLSEISARSAASSLRAFQTLARAKKRKENFWGKT

What follows are molecules tested against WT PREPL (prolyl endopeptidase-like, PREPLS), MAPPIT bait (human) (UniProt Q4J6C6) (assay: two-hybrid; MAPPIT (mammalian protein-protein interaction trap) in HEK293T cells, 96-well; cotransfected with 250 ng bait (PREPLS in pSEL(+2L)), 500 ng prey (pMG1) and 50 ng pXP2d2-rPAP1-luciferase reporter; stimulated with NeoRecormon 5 ng/mL; luciferase measured 24 h after stimulation; normalised to irrelevant bait and irrelevant prey; signals relative to WT PREPL; WT also tested with 50 μM inhibitor 8 (interactions decreased with 8 interactors)).

binding | Molecule
binds | ADM2 (from UniProt Q7Z4H4)

The molecules below were run against PREPL β-propeller domain alone, MAPPIT bait (human) (UniProt Q4J6C6) in the same assay as above.

binding | Molecule
no binding | PDK1 (from UniProt Q15118 29-436)
no binding | DCTN5 (from UniProt Q9BTE1 1-182)
no binding | ARPC5L (from UniProt Q9BPX5 1-153)
no binding | ADM2 (from UniProt Q7Z4H4)
binds | NDUFV2 (from UniProt P19404 33-249)
binds | B1
no binding | B2
no binding | B3
no binding | B4
